Assay results from PubChem BioAssay AID445 (National Center for Advancing Translational Sciences (NCATS), 2006).
The list shows a part of the results. Further columns of the screen follow, without active or inactive calls. The list favours compounds with an active or inconclusive main result. Words in brackets tell the shape of the fitted curve; partial curves, single points and poor fits give uncertain potencies.

test: IkB Signaling; details: ABC-DLBCL IkBa-CBG/CBR dual luciferase ratio (green luciferase fused to IkBa over red control in OCI-Ly3 lymphoma cells), 4 h; measured here: control luc red channel unless noted
How it was run: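 Curves were fitted separately to fusion (green), unfused (red) and ratio luminescence, then classed by r2, magnitude and activity. Cells: OCI-Ly3, 4 h compound plus doxycycline at 37C; 10 uM MG-132 defined full response.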

SMILES | AC50
CCC1(c2cccc(Cl)c2)NC(=O)N(Cc2cc(C(=O)OC)c(C)o2)C1=O (configuration not stated) | 15.8 µM [falling, partial curve]
Cc1ccnc(NC(=O)CCC2COc3ccccc3O2)c1 (configuration not stated) | 15.8 µM [falling, partial curve]
Cc1cc(C(=O)NCCc2ccc(Cl)cc2)c2c(C)nn(-c3cccc(F)c3)c2n1 | 39.8 µM [falling, single point]
O=C(C1CCCN(S(=O)(=O)c2cccc3cccnc23)C1)N1CCc2ccccc21 (configuration not stated) | 15.8 µM [falling, partial curve]
COc1ccc(N(CC(=O)NCCc2cccc(C)c2)S(=O)(=O)c2c(C)noc2C)cc1 | 15.8 µM [falling, single point]
CC(C)Oc1ccc(CNC(=O)CCn2c(=O)c3cccn3c3ccc(F)cc32)cc1 | 25.1 µM [falling, partial curve]
O=C(Nc1ccc2c(c1)N(C1CCCC1)C(=O)c1ccccc1S2)c1cccc(F)c1 | 39.8 µM [falling, single point]
COc1cccc(-n2c(=O)c3c(C)c(C(=O)N(C)C)sc3n(CC(=O)Nc3ccc(C)cc3Cl)c2=O)c1 | 1.26 µM [rising, full curve]
Cc1c(C)n(Cc2ccccc2)c2ccc(C(=O)NCCc3ccccc3Cl)cc12 | 1.58 µM [rising, full curve]
O=C(NCCc1csc(-c2cccc(F)c2)n1)c1ccc(Br)o1 | 15.8 µM [falling, partial curve]
O=C1CC(c2nc(-c3cccc(Cl)c3)no2)CN1c1ccc2c(c1)OCCO2 (configuration not stated) | 15.8 µM [falling, partial curve]
COc1ccc2[nH]c(=O)c(CN(Cc3ccccc3)Cc3nnnn3CC3CCCO3)cc2c1 (configuration not stated) | 12.6 µM [falling, partial curve]
Cc1n[nH]c(C)c1S(=O)(=O)N(CC(=O)NCc1ccccc1Cl)c1ccc(C(C)C)cc1 | 25.1 µM [falling, partial curve]
CCOc1ccccc1CNC(=O)CCc1cn(Cc2ccc(Cl)cc2)c2ccccc12 | 12.6 µM [falling, partial curve]
CCN(C(=O)Cn1c(=O)oc2cc(S(=O)(=O)N3CCCC3)ccc21)c1cccc(C)c1 | 31.6 µM [falling, single point]
CCCCN(C)C(=O)C1CCC(CNS(=O)(=O)c2ccc3c(c2)CC(C)N3C(C)=O)CC1 (configuration not stated) | 15.8 µM [falling, single point]
Cn1c(=O)[nH]c(=O)c2c1nc(N1CCN(Cc3ccccc3)CC1)n2CCCc1ccccc1 | 39.8 µM [falling, single point]
CCN(CC)C(=O)Cn1c(SCCOc2ccc(Cl)cc2)nc2ccccc21 | 39.8 µM [falling, single point]
COc1ccc(OC)c(S(=O)(=O)Nc2cc3c(C(C)=O)c(C)oc3c3ccccc23)c1 | 25.1 µM [falling, single point]
COc1ccc(-c2nnc(SCC(=O)Nc3ccc(C(C)=O)cc3)nc2-c2ccc(OC)cc2)cc1 | 25.1 µM [falling, single point]
N=C1C(c2ccc(Br)cc2)=C(O)C2CCc3ccccc3N12 (configuration not stated) | 5.01 µM [falling, partial curve]

SMILES | AC50
Cc1ccc(S(=O)(=O)NCC2CCC(C(=O)N(C)Cc3ccccc3)CC2)cc1 (configuration not stated) | 25.1 µM [falling, partial curve]
CC(Oc1ccc(F)cc1)C(=O)Nc1cc(-c2ccc(F)c(F)c2)no1 (configuration not stated) | 2 µM [rising, full curve]
CCOc1ccc(CCNC(=O)c2c(C)oc3ncnc(N4CCOCC4)c23)cc1 | 0.158 µM [falling, full curve, poor fit]
Cc1ccc(NC(=O)CN2C(=O)COc3ccc(S(=O)(=O)N4CCCCCC4)cc32)cc1C | 20 µM [falling, single point]
COCCCNC(=O)CSc1nc2ccccc2c(=O)n1Cc1ccco1 | 6.31 µM [rising, single point]
CCOc1cccc(CNc2ccc(O)cc2)c1OCc1ccccc1Cl | 31.6 µM [falling, partial curve]
COc1ccc(CNC(=O)c2ccc3[nH]c(C)c(C)c3c2)c(OC)c1 | 12.6 µM [falling, single point]
CCc1nnc2c(NCCc3ccc(OC)c(OC)c3)nc3ccccc3n12 | 39.8 µM [falling, single point]
COc1ccc(-c2onc(C)c2C)cc1S(=O)(=O)NCc1ccc(Br)cc1 | 2.51 µM [falling, partial curve]
COc1cc(-c2ccc(N=Nc3ccc4c(S(=O)(=O)O)cc(S(=O)(=O)O)c(N)c4c3O)c(OC)c2)ccc1N=Nc1ccc2c(S(=O)(=O)O)cc(S(=O)(=O)O)c(N)c2c1O | 39.8 µM [falling, single point]
CCCCOc1ccc(C(=O)NCCc2sc(-c3cccc(F)c3)nc2C)cc1 | 15.8 µM [falling, partial curve]
O=C(Nc1ccc(NC(=O)c2cccs2)cc1)c1cccc(Br)c1 | 0.1 µM [rising, full curve, poor fit]
CNc1ccc(C(O)(C(F)(F)F)C(F)(F)F)cc1C(O)(C(F)(F)F)C(F)(F)F | 25.1 µM [falling, partial curve]
COc1ccc(N2CCN(S(=O)(=O)c3ccc(OC)c(-c4noc(C)n4)c3)CC2)cc1 | 39.8 µM [falling, single point]
O=C(c1cc2c(s1)-c1ccccc1OC2)N1CCCC1 | 10 µM [falling, partial curve]
CN(C)CCC(=O)c1ccc2c(c1)OCO2 | 12.6 µM [falling, partial curve]
c1ccc2c(c1)nc(N1CCN(C3CCCCC3)CC1)c1nnnn12 | 3.98 µM [falling, partial curve]
CC(C)(C)c1csc(NC(=O)CSc2nc3ccccc3c(=O)[nH]2)n1 | 15.8 µM [falling, partial curve]
CCOc1ccccc1NC(=O)C(C)Sc1nc(-c2ccccc2)c(C#N)c(=O)[nH]1 (configuration not stated) | 5.01 µM [falling, partial curve]
COc1cccc(C2C=C(c3ccc(OC)cc3OC)Nc3nnnn32)c1 (configuration not stated) | 12.6 µM [falling, partial curve]
COc1cc(NC(=O)c2nc3ccccc3nc2C)cc(OC)c1OC | 25.1 µM [falling, partial curve]

An excerpt from above in order of heavy-atom count, ascending.
SMILES | AC50
COc1ccc(CNC(=O)c2ccc3[nH]c(C)c(C)c3c2)c(OC)c1 | 12.6 µM [falling, single point]
COc1ccc(OC)c(S(=O)(=O)Nc2cc3c(C(C)=O)c(C)oc3c3ccccc23)c1 | 25.1 µM [falling, single point]
Cc1ccc(NC(=O)CN2C(=O)COc3ccc(S(=O)(=O)N4CCCCCC4)cc32)cc1C | 20 µM [falling, single point]

Next results.

SMILES | AC50
COc1cc(CN(C(=O)c2cccc(Cl)c2)c2ccccn2)cc(OC)c1OC | 39.8 µM [falling, partial curve]
CCC(C(=O)N1CCN(c2ccccc2F)CC1)n1nc(C)c2sc3ccccc3c2c1=O (configuration not stated) | 5.01 µM [falling, partial curve]
COc1ccc(NC(=O)CCn2nc(-c3ccccc3OC)c3c(C)cc(C)nc32)cc1 | 15.8 µM [falling, partial curve]
Cc1ccccc1OCc1ccc(-c2nc(C#N)c(N3CCN(C)CC3)o2)o1 | 20 µM [falling, single point]
CC1=C(C(=O)OCC(C)C)C(c2ccc(OCc3ccccc3)cc2)N2C(=O)CCSC2=N1 (configuration not stated) | 12.6 µM [falling, partial curve]
Cc1cc(NC(=O)CSc2nc3c([nH]c4ccccc43)c(=O)n2-c2ccccc2)no1 | 1 µM [rising, full curve, poor fit]
O=c1cc(-c2ccc(F)cc2)nc(SCc2nc(-c3cccc(Cl)c3)no2)[nH]1 | 6.31 µM [rising, single point]
O=C(C1CCCN(S(=O)(=O)c2ccc(Br)s2)C1)N1CCN(c2ccc(F)cc2)CC1 (configuration not stated) | 20 µM [falling, partial curve]
CCc1ccc(NC(=O)CSc2nccn2-c2cccc(C)c2C)cc1 | 39.8 µM [falling, single point]
Cc1ccc(C2CC(=O)N(Cc3ccccc3)c3c2c(C)nn3-c2nc(C)cc(C)n2)cc1 (configuration not stated) | 25.1 µM [falling, partial curve]
CC1CN(C(=O)N2CCC(C(=O)NCCC3=CCCCC3)CC2)c2cc(Cl)ccc2O1 (configuration not stated) | 39.8 µM [falling, single point]
COC(=O)c1c(C)[nH]c(C(=O)COC(=O)Cc2ccc3c(c2)OCCO3)c1C | 25.1 µM [falling, single point]
Cc1ccc(C)n1-c1c(C(=O)NCCCN2CCN(c3ccc(F)cc3)CC2)sc2ncccc12 | 2 µM [falling, full curve]
O=C(c1c(F)c(F)c(F)c(F)c1F)N1CCN(c2cccc(C(F)(F)F)c2)CC1 | 31.6 µM [falling, single point]
Cc1ccc(Cl)cc1-n1ncc2c(NCCCn3ccnc3)ncnc21 | 15.8 µM [falling, single point]
O=C(C1CCN(S(=O)(=O)Cc2ccccc2)CC1)N1CCN(c2ccc(F)cc2)CC1 | 39.8 µM [falling, single point]
CCOc1ccc(Cc2nnc(SCC(=O)c3ccc(OC)cc3)o2)cc1 | 20 µM [falling, partial curve]
CCOC(=O)c1c(C)[nH]c(C(=O)OC)c1CCC(=O)OC | 12.6 µM [rising, partial curve]
CCOC(=O)Cc1csc(SCC(=O)c2c(N)n(CC(C)C)c(=O)n(C)c2=O)n1 | 12.6 µM [falling, partial curve]
Cc1cccc(-c2nnn3c2nc(NCCc2ccc(S(N)(=O)=O)cc2)c2ccccc23)c1 | 1 µM [falling, full curve]
